No constants are given. Whether binding was seen depends on the method and setting. In cells and extracts the contact can be indirect. Here binding means that the protein was enriched with, or labelled near, the bait; the list need not be complete.
B1: SAE1 (protein, UniProt Q9UBE0 1-346)
chain: MVEKEEAGGGISEEEAAQYDRQIRLWGLEAQKRLRASRVLLVGLKGLGAEIAKNLILAGVKGLTMLDHEQVTPEDPGAQFLIRTGSVGRNRAEASLERAQNLNPMVDVKVDTEDIEKKPESFFTQFDAVCLTCCSRDVIVKVDQICHKNSIKFFTGDVFGYHGYTFANLGEHEFVEEKTKVAKVSQGVEDGPDTKRAKLDSSETTMVKKKVVFCPVKEALEVDWSSEKAKAALKRTTSDYFLLQVLLKFRTDKGRDPSSDTYEEDSELLLQIRNDVLDSLGISPDLLPEDFVRYCFSEMAPVCAVVGGILAQEIVKALSQRDPPHNNFFFFDGMKGNGIVECLGPK

Protein sequences, listed by entry. Tags and fused reporters are not part of them. Residues count along the entry.
UniProt O15550: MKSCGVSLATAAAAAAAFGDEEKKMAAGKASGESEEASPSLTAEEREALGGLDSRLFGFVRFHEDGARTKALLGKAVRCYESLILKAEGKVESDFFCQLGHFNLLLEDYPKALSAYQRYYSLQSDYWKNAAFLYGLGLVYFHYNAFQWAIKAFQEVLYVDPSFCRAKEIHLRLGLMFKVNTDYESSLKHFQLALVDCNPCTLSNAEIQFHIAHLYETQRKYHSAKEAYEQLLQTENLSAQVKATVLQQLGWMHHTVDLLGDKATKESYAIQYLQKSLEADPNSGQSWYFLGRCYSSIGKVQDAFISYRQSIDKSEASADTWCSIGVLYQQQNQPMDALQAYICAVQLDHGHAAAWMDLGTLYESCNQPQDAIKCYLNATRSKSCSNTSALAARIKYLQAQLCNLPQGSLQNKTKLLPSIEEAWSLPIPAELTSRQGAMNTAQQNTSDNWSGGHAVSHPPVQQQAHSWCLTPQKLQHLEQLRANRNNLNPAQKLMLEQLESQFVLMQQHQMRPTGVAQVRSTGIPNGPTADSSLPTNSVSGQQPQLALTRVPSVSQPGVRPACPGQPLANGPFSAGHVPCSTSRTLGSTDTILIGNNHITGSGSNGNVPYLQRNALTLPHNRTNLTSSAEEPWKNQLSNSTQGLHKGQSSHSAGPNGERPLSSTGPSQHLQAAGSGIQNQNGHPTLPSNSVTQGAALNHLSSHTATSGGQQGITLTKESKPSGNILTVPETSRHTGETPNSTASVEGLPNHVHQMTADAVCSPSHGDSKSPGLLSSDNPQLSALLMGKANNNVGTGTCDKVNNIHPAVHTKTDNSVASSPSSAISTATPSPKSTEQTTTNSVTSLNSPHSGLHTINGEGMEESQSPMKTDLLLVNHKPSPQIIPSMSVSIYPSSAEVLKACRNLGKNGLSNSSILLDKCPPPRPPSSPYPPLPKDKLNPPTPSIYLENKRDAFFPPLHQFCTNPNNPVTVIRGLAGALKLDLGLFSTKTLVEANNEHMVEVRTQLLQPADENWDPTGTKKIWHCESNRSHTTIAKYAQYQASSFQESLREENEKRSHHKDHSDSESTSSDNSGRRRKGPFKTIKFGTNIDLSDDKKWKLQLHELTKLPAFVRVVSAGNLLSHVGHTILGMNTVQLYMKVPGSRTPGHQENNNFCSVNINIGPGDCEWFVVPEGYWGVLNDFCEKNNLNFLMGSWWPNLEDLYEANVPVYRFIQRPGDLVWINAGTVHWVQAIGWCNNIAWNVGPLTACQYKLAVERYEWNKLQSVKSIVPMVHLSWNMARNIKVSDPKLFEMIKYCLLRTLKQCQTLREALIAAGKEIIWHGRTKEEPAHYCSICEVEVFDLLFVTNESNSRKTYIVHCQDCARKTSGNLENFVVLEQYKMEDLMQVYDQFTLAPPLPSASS
UniProt P12956: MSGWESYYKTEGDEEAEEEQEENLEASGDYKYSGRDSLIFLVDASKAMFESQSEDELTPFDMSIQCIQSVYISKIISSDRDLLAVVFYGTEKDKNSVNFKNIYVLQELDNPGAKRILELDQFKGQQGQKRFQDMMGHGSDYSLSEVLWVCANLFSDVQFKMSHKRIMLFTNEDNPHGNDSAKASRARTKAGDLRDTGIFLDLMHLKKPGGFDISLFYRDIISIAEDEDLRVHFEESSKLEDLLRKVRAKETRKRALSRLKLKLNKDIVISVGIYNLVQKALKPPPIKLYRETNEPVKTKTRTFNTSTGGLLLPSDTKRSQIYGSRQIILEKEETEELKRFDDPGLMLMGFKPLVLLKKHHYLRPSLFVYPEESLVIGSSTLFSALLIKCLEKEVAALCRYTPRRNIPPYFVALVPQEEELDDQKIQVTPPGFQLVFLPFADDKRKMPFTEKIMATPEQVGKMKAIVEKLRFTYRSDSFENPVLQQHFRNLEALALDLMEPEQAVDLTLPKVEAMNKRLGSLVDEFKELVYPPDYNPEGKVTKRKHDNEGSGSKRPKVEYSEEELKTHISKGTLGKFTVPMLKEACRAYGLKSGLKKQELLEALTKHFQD
UniProt P13010: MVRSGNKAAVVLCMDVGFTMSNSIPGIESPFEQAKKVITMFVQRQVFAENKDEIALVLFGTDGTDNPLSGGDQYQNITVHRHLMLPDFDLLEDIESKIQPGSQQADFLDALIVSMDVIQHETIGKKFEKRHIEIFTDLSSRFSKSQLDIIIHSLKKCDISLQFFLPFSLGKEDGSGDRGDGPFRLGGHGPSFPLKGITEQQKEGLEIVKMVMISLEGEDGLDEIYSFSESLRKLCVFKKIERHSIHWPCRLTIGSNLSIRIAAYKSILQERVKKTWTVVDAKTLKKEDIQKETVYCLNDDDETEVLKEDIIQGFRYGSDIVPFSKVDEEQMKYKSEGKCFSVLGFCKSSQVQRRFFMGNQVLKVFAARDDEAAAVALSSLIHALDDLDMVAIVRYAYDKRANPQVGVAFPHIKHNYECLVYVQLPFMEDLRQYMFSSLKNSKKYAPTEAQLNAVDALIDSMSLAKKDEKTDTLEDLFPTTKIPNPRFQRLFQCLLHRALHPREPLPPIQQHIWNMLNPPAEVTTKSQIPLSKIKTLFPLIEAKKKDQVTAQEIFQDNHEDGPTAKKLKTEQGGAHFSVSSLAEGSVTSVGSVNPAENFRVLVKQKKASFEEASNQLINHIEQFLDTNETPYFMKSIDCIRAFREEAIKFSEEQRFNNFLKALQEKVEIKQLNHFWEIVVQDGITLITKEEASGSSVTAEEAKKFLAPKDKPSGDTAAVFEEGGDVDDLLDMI
UniProt P12004: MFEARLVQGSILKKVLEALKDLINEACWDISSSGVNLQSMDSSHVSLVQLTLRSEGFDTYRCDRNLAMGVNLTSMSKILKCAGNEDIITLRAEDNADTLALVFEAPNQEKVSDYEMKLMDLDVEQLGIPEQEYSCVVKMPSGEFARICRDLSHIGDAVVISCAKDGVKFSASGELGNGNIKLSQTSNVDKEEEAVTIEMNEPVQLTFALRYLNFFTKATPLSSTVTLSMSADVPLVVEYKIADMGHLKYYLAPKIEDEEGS
UniProt P27694: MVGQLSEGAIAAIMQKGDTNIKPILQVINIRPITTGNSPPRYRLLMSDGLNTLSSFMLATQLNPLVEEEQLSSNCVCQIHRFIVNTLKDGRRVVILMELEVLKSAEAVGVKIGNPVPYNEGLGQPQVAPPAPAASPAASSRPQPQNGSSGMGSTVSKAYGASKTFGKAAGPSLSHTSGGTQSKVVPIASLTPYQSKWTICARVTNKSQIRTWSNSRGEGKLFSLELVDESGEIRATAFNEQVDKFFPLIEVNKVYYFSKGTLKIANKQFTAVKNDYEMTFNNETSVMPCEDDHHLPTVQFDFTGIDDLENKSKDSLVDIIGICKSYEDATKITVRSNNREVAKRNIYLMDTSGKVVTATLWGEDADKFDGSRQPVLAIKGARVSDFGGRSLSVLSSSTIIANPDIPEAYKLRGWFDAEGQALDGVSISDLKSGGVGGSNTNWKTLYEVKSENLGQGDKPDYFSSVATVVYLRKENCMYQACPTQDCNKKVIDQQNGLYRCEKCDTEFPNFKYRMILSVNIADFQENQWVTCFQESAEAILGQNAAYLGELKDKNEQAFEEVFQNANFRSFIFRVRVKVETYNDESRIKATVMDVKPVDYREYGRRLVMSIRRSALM
UniProt P15927: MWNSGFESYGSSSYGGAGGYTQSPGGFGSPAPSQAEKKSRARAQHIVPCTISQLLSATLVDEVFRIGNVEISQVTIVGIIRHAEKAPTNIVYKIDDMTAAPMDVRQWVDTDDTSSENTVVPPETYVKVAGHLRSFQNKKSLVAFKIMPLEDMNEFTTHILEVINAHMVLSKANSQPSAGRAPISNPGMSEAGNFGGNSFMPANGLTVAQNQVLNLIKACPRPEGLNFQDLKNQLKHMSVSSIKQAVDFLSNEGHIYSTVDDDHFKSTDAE
UniProt Q08945: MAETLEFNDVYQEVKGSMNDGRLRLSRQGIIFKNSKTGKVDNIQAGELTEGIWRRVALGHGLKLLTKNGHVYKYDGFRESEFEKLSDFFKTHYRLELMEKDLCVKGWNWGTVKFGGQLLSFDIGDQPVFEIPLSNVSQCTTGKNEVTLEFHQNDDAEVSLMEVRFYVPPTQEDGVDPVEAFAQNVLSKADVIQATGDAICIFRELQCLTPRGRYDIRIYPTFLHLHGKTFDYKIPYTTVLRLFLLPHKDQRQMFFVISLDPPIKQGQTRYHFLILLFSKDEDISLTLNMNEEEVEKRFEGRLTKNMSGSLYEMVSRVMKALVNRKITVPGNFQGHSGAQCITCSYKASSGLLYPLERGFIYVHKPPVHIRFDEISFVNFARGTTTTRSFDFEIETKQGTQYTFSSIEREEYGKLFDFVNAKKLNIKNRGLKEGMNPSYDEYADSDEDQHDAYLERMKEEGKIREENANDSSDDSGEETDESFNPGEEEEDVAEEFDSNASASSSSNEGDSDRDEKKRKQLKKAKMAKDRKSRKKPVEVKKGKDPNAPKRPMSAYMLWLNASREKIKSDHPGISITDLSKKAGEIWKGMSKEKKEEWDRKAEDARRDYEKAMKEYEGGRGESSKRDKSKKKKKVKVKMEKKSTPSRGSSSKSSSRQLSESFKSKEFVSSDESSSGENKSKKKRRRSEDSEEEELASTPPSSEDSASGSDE
UniProt P63165, residues 1-97: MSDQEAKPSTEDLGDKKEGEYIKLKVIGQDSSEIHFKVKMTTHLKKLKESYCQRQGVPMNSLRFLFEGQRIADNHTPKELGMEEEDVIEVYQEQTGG
UniProt Q7KZF4: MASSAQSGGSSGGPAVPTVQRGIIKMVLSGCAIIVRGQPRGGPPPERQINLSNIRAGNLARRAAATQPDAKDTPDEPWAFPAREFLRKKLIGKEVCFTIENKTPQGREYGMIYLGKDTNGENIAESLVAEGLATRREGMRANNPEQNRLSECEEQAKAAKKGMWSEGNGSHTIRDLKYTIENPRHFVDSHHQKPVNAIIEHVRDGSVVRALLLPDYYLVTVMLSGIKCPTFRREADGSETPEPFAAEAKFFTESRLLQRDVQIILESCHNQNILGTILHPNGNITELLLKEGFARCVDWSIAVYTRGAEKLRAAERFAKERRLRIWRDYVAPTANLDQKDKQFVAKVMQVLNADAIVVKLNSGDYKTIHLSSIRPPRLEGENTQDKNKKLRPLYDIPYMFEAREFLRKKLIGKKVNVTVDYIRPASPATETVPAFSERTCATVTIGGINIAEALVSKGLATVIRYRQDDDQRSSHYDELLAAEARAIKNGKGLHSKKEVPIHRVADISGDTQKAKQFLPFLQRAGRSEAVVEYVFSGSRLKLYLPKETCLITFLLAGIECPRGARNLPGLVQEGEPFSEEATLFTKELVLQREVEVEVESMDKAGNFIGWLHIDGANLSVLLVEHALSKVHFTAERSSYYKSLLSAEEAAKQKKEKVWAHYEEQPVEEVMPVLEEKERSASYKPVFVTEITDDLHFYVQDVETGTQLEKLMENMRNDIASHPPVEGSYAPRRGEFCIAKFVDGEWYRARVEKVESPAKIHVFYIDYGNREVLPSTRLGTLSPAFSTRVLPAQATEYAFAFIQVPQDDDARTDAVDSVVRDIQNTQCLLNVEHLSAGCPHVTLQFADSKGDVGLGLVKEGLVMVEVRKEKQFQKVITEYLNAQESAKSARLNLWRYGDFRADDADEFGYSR

Target: KDM6A (bait of the co-IP with mass spectrometry and of the co-IP with Ku70; endogenous or tagged not told) (UniProt O15550)
Test: affinity purification with mass spectrometry; KDM6A co-IP on magnetic beads from sonicated cell lysate (20 mM HEPES pH 8.0, 150 mM NaCl, 1 mM EDTA, 1.5 mM MgCl2, 1% Triton X-100, 10% glycerol), 4 °C 2 h; SDS-PAGE, silver staining, mass spectrometry; cells not named

binding, binds:
B1

Target: KDM6A (bait of the co-IP with mass spectrometry and of the co-IP with Ku70; endogenous or tagged not told) (UniProt O15550)
Test: as above
Remark: another data set of the same source

binding, binds:
Ku70 (from UniProt P12956 1-609)
Ku80 (from UniProt P13010 1-732)
PCNA (from UniProt P12004 1-261)
RPA1 (endogenous, hit of the KDM6A co-IP with mass spectrometry) (from UniProt P27694 1-616)
RPA2 (from UniProt P15927 1-270)
SMARCA5 (from UniProt O60264 1-1052)
SSRP (from UniProt Q08945 1-709)
SUMO1 (endogenous, hit of the KDM6A co-IP with mass spectrometry) (from UniProt P63165 1-97)
staphylococcal nuclease domain-containing protein 1 (SND1), endogenous (from UniProt Q7KZF4 1-910)
